These are yes or no findings as the source states them, for the method shown. Binding seen in cells or lysates may run through a third protein. A yes stands for co-enrichment or nearness to the bait. Other partners may have been found.

Amino acid sequences for entries named in this document (tags omitted).
UniProt Q9H4L4: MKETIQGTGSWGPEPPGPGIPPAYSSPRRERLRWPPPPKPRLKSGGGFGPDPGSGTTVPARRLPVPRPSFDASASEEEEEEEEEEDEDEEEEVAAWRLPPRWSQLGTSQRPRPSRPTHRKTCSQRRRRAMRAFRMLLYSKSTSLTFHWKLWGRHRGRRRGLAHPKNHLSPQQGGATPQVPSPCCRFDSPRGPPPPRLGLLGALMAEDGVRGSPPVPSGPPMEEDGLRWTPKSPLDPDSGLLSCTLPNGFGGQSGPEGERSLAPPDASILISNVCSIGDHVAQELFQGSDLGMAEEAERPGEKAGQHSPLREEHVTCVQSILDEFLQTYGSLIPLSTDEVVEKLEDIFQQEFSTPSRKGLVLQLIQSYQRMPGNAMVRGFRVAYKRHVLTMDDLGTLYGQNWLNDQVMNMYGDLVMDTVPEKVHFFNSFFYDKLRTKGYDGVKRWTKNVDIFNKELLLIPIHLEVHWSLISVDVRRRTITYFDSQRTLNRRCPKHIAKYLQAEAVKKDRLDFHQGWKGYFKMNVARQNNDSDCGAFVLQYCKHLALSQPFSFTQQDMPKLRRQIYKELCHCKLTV

In this experiment the target is FLAG-SENP3 (UniProt Q9H4L4). Briefly: affinity purification with mass spectrometry; 293T cells transfected with vector FLAG-pcDNA or FLAG-SENP3; co-IP with anti-FLAG antibody; gel silver stained, bands of approximately 100 kDa examined by MS; Table 1 lists the hits that were also increased in lysate of SENP3-transfected cells.

B1: GTF3C4 (protein, UniProt Q9UKN8 1-822)
chain: MNTADQARVGPADDGPAPSGEEEGEGGGEAGGKEPAADAAPGPSAAFRLMVTRREPAVKLQYAVSGLEPLAWSEDHRVSVSTARSIAVLELICDVHNPGQDLVIHRTSVPAPLNSCLLKVGSKTEVAECKEKFAASKDPTVSQTFMLDRVFNPEGKALPPMRGFKYTSWSPMGCDANGRCLLAALTMDNRLTIQANLNRLQWVQLVDLTEIYGERLYETSYRLSKNEAPEGNLGDFAEFQRRHSMQTPVRMEWSGICTTQQVKHNNECRDVGSVLLAVLFENGNIAVWQFQLPFVGKESISSCNTIESGITSPSVLFWWEYEHNNRKMSGLIVGSAFGPIKILPVNLKAVKGYFTLRQPVILWKEMDQLPVHSIKCVPLYHPYQKCSCSLVVAARGSYVFWCLLLISKAGLNVHNSHVTGLHSLPIVSMTADKQNGTVYTCSSDGKVRQLIPIFTDVALKFEHQLIKLSDVFGSVRTHGIAVSPCGAYLAIITTEGMINGLHPVNKNYQVQFVTLKTFEEAAAQLLESSVQNLFKQVDLIDLVRWKILKDKHIPQFLQEALEKKIESSGVTYFWRFKLFLLRILYQSMQKTPSEALWKPTHEDSKILLVDSPGMGNADDEQQEEGTSSKQVVKQGLQERSKEGDVEEPTDDSLPTTGDAGGREPMEEKLLEIQGKIEAVEMHLTREHMKRVLGEVYLHTWITENTSIPTRGLCNFLMSDEEYDDRTARVLIGHISKKMNKQTFPEHCSLCKEILPFTDRKQAVCSNGHIWLRCFLTYQSCQSLIYRRCLLHDSIARHPAPEDPDWIKRLLQSPCPFCDSPVF
B1: the binding entry is “binds”.

B2: ELAC2 (protein, UniProt Q9BQ52 17-826)
chain: SQGRTISQAPARRERPRKDPLRHLRTREKRGPSGCSGGPNTVYLQVVAAGSRDSGAALYVFSEFNRYLFNCGEGVQRLMQEHKLKVARLDNIFLTRMHWSNVGGLSGMILTLKETGLPKCVLSGPPQLEKYLEAIKIFSGPLKGIELAVRPHSAPEYEDETMTVYQIPIHSEQRRGKHQPWQSPERPLSRLSPERSSDSESNENEPHLPHGVSQRRGVRDSSLVVAFICKLHLKRGNFLVLKAKEMGLPVGTAAIAPIIAAVKDGKSITHEGREILAEELCTPPDPGAAFVVVECPDESFIQPICENATFQRYQGKADAPVALVVHMAPASVLVDSRYQQWMERFGPDTQHLVLNENCASVHNLRSHKIQTQLNLIHPDIFPLLTSFRCKKEGPTLSVPMVQGECLLKYQLRPRREWQRDAIITCNPEEFIVEALQLPNFQQSVQEYRRSAQDGPAPAEKRSQYPEIIFLGTGSAIPMKIRNVSATLVNISPDTSLLLDCGEGTFGQLCRHYGDQVDRVLGTLAAVFVSHLHADHHTGLPSILLQRERALASLGKPLHPLLVVAPNQLKAWLQQYHNQCQEVLHHISMIPAKCLQEGAEISSPAVERLISSLLRTCDLEEFQTCLVRHCKHAFGCALVHTSGWKVVYSGDTMPCEALVRMGKDATLLIHEATLEDGLEEEAVEKTHSTTSQAISVGMRMNAEFIMLNHFSQRYAKVPLFSPNFSEKVGVAFDHMKVCFGDFPTMPKLIPPLKALFAGDIEEMEERREKRELRQVRAALLSRELAGGLEDGEPQQKRAHTEEPQAKKVRAQ
On to B2, for which the binding result was “binds”.

(Values after PMC4707158.)
